No dose or concentration is given here for some results.
The compounds below were run on NNMT (endogenous MNA levels) (assay: Determination of MNA in cells (Target engagement)).
Format: cell-based, human
Description: As next steps, cellular assays using the human U2OS cell line were carried out. This assay, described in[6], measures inhibition of endogenous NNMT, without recombinant expression, by quantification of MNA via LC–MS/MS. […] EC50 values were higher by a factor of ~ 30 compared to IC50 values on the isolated recombinant hNNMT, probably reflecting low cell membrane permeability.

First: CN1Cc2c(F)c(F)cc3c2N(CCC3)C1=N [Compound (3)]
Second: Br.CN1Cc2c(F)c(F)cc3c2N(CC3)C1=N [Compound (9), 8,9-difluoro-2-methyl-1,2,5,6-tetrahydro-3H-pyrrolo[3,2,1-ij]quinazolin-3-imine hydrobromide]
The “time point after addition of compound at which maximal MNA reduction was observed” value of the first is 4-fold higher: 1.0 h for the first, 0.25 h for the second.

Going from `CN1Cc2cccc3c2N(CCS3)C1=N` [Compound (13)] to `CN1Cc2cccc3c2N(CCC3)C1=N` [Compound (1)], the “time point after addition of compound at which maximal MNA reduction was observed” value falls from 1.0 h to 0.5 h (2-fold).

`Br.CN1Cc2cc(F)cc3c2N(CCO3)C1=N` [Compound (18)] and `CN1Cc2cc(F)cc3c2N(CCC3)C1=N` [Compound (2)] are the same in “time point after addition of compound at which maximal MNA reduction was observed” value: 0.5 h for the first, 0.5 h for the second.

Reference: publication PMC9474883, “Novel tricyclic small molecule inhibitors of Nicotinamide N-methyltransferase for the treatment of metabolic disorders” (Scientific Reports, 2022)
